PubChem BioAssay AID1259254, NCATS, 2017
Shown is an unselected part of about 59,000 reagents. About 1,550 of all reagents (2.6%) were called active. 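G2 share is only a proxy for re-replication; each gene was hit by three separate siRNAs, and active genes were retested.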 Raw values are not corrected between plates. The record does not give: the amount of reagent.

Screen: 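Finding genes that stop cells copying their DNA twice in one cycle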 (primary screen)
System: human HCT116 colorectal cancer cells
Knock-down reagent: single siRNA against human genes
Time to read-out: 3 days
Measured: 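Nuclei stained with Hoechst and imaged; cell-cycle phase assigned by DNA content; G2 share scaled per plate, non-targeting siRNA 0%, GMNN siRNA 100%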
Direction: G2 robust z-score and G2 cells, % of GMNN control: higher = more G2 cells, more excess DNA replication; raw share of cells in G2: higher = larger share of cells with G2 DNA content
Rule for the call: 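Active siRNAs have a G2 robust z of 5 or more median absolute deviations over the median, which in these data means about 38% or higher of GMNN control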

The first 5 entries as a preview:
gene	PubChem SID	G2 robust z-score	G2 cells, % of GMNN control	raw share of cells in G2 (%)	outcome
IFITM2 (interferon induced transmembrane protein 2)	SID160724272	-0.295	0.89	4.5	inactive
IFITM2 (interferon induced transmembrane protein 2)	SID160724273	2.91	23.4	11.9	inactive
IFITM2 (interferon induced transmembrane protein 2)	SID160728788	-0.895	-3.33	3.68	inactive
GTF2H2B (general transcription factor IIH subunit 2B (pseudogene))	SID160728026	0.616	7.3	6.5	inactive
GTF2H2B (general transcription factor IIH subunit 2B (pseudogene))	SID160728027	1.45	13.2	8.03	inactive

Results, from the first entry:
gene	PubChem SID	G2 robust z-score	G2 cells, % of GMNN control	raw share of cells in G2 (%)	outcome
IFITM2 (interferon induced transmembrane protein 2)	SID160724272	-0.295	0.89	4.5	inactive
IFITM2 (interferon induced transmembrane protein 2)	SID160724273	2.91	23.4	11.9	inactive
IFITM2 (interferon induced transmembrane protein 2)	SID160728788	-0.895	-3.33	3.68	inactive
GTF2H2B (general transcription factor IIH subunit 2B (pseudogene))	SID160728026	0.616	7.3	6.5	inactive
GTF2H2B (general transcription factor IIH subunit 2B (pseudogene))	SID160728027	1.45	13.2	8.03	inactive
GTF2H2B (general transcription factor IIH subunit 2B (pseudogene))	SID160728028	-0.358	0.452	2.91	inactive
TRIM37 (tripartite motif containing 37)	SID160777580	-0.401	0.145	5.42	inactive
TRIM37 (tripartite motif containing 37)	SID160777581	1.99	17	8.8	inactive
TRIM37 (tripartite motif containing 37)	SID160777582	1.16	11.2	9.89	inactive
FKBP11 (FKBP prolyl isomerase 11)	SID160731362	6.07	45.7	21.1	active
FKBP11 (FKBP prolyl isomerase 11)	SID160740551	0.104	3.7	7.63	inactive
FKBP11 (FKBP prolyl isomerase 11)	SID160740552	-0.0386	2.7	4.83	inactive
OR1B1 (olfactory receptor family 1 subfamily B member 1)	SID160733125	-0.0169	2.85	5.34	inactive
OR1B1 (olfactory receptor family 1 subfamily B member 1)	SID160764937	-0.782	-2.54	3.11	inactive
OR1B1 (olfactory receptor family 1 subfamily B member 1)	SID160764938	2.54	20.8	12.4	inactive
SDHC (succinate dehydrogenase complex subunit C)	SID160716528	-0.419	0.0167	5.69	inactive
SDHC (succinate dehydrogenase complex subunit C)	SID160716529	0.38	5.64	6.48	inactive
SDHC (succinate dehydrogenase complex subunit C)	SID160716530	-0.278	1.01	4.29	inactive
APOO (apolipoprotein O)	SID160748668	-0.625	-1.43	3.96	inactive
APOO (apolipoprotein O)	SID160748671	-1.08	-4.61	2.54	inactive
APOO (apolipoprotein O)	SID160748672	0.258	4.78	3.96	inactive
LINC02523 (long independently transcribed non-coding RNA 2523)	SID160768930	0.35	5.43	5.7	inactive
LINC02523 (long independently transcribed non-coding RNA 2523)	SID160768931	-0.382	0.282	3.37	inactive
LINC02523 (long independently transcribed non-coding RNA 2523)	SID160768933	0.431	6	4.89	inactive
SLC24A2	SID160736941	0.49	6.41	9.07	inactive
SLC24A2	SID160736942	2.03	17.3	9.92	inactive
SLC24A2	SID160736943	-0.473	-0.358	3.87	inactive
MROH5 (maestro heat like repeat family member 5 (gene/pseudogene))	SID160766265	-0.41	0.085	3.8	inactive
MROH5 (maestro heat like repeat family member 5 (gene/pseudogene))	SID160766266	-0.487	-0.457	3.21	inactive
MROH5 (maestro heat like repeat family member 5 (gene/pseudogene))	SID160766267	-1.49	-7.52	1.41	inactive
GLYCTK (glycerate kinase)	SID160757134	0.376	5.62	7.34	inactive
GLYCTK (glycerate kinase)	SID160757135	-0.72	-2.1	4.43	inactive
GLYCTK (glycerate kinase)	SID160757136	-0.87	-3.16	2.67	inactive
EVL (Enah/Vasp-like)	SID160733506	-0.847	-2.99	2.2	inactive
EVL (Enah/Vasp-like)	SID160740852	0.00211	2.98	4.67	inactive
EVL (Enah/Vasp-like)	SID160740853	-0.457	-0.248	4.17	inactive
THSD1 (thrombospondin type 1 domain containing 1)	SID160744606	2.06	17.5	11.2	inactive
THSD1 (thrombospondin type 1 domain containing 1)	SID160744607	-0.425	-0.0233	4.45	inactive
THSD1 (thrombospondin type 1 domain containing 1)	SID160744608	0.602	7.21	5.31	inactive
UNKL (unk like zinc finger)	SID160747872	1.17	11.2	9.45	inactive
UNKL (unk like zinc finger)	SID160747873	0.453	6.16	7.37	inactive
UNKL (unk like zinc finger)	SID160747874	-0.646	-1.58	2.28	inactive
UNKL (unk like zinc finger)	SID160748312	-0.519	-0.681	4.28	inactive
UNKL (unk like zinc finger)	SID160748313	2.02	17.2	12.3	inactive
UNKL (unk like zinc finger)	SID160748314	0.58	7.05	4.56	inactive
TBC1D16 (TBC1 domain family member 16)	SID160756297	2.41	19.9	12.1	inactive
TBC1D16 (TBC1 domain family member 16)	SID160756298	-0.462	-0.285	3.25	inactive
TBC1D16 (TBC1 domain family member 16)	SID160756299	-0.532	-0.774	1.59	inactive
